Measurements reported in PubChem BioAssay AID1259425 (University of Nebraska Medical Center, 2018)
The deposit covers about 14,000 reagents; shown is a part drawn at random. Further read-outs or replicates are left out here. Not stated in the record: the time to read-out.

Screen: 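Seek colon cancer weak points whose silencing resembles KSR1 loss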 (primary screen)
Cell system: HCT116 human colon cancer cells
Reagent: siRNA pool against human genes, 50 nM siRNA
Read-out: 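After 50 nM siRNA pool, branched-DNA assay measures six marker transcripts per well, minus blank, normalised to the geometric mean of two housekeeping transcripts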
Direction: BNIP3L mRNA: higher = more BNIP3L transcript after knockdown; NDRG1 mRNA: higher = more NDRG1 transcript after knockdown

Depletion of DEXI (GeneID 28955) [SID363998550] gave: BNIP3L mRNA, set 1 = 0.135; NDRG1 mRNA, set 1 = 0.349.
SDCBP2 (GeneID 27111) [SID363999646] scored BNIP3L mRNA, set 1 = 0.0574; NDRG1 mRNA, set 1 = 0.168.
With knock-down of BACE2 (GeneID 25825) [SID363998054], the record shows BNIP3L mRNA, set 1 = 0.181; NDRG1 mRNA, set 1 = 0.251.
FARS2 (GeneID 10667) [SID363997358] scored BNIP3L mRNA, set 1 = 0.115; NDRG1 mRNA, set 1 = 0.308.
Silencing of GSDMB (GeneID 55876) [SID364001124] resulted in: BNIP3L mRNA, set 1 = 0.123; NDRG1 mRNA, set 1 = 0.154.
UBE2D3 (GeneID 7323) [SID363994456] scored BNIP3L mRNA, set 1 = 0.129; NDRG1 mRNA, set 1 = 0.198.
SDHAF2 (GeneID 54949) [SID364000573] scored BNIP3L mRNA, set 1 = 0.0556; NDRG1 mRNA, set 1 = 0.303.
For IFNA6 (GeneID 3443) [SID364001943] the deposit lists BNIP3L mRNA, set 1 = 0.116; NDRG1 mRNA, set 1 = 0.254.
FOLH1 (GeneID 2346) [SID363995457] showed BNIP3L mRNA, set 1 = 0.152; NDRG1 mRNA, set 1 = 0.192.
After knock-down of RPL7A (GeneID 6130) [SID363992256], the screen gave BNIP3L mRNA, set 1 = 0.207; NDRG1 mRNA, set 1 = 0.261.
Against MMP11 (GeneID 4320) [SID363996807], the entry reads BNIP3L mRNA, set 1 = 0.165; NDRG1 mRNA, set 1 = 0.398.
After knock-down of SLF2 (GeneID 55719) [SID364000798] the results were BNIP3L mRNA, set 1 = 0.116; NDRG1 mRNA, set 1 = 0.25.
Depletion of VRTN (GeneID 55237) [SID364000895] came out at: BNIP3L mRNA, set 1 = 0.0774; NDRG1 mRNA, set 1 = 0.0668.
For HOXB2 (GeneID 3212) [SID363993349], the entry reads BNIP3L mRNA, set 1 = 0.128; NDRG1 mRNA, set 1 = 0.263.
IRF8 (GeneID 3394) [SID363993367] gave BNIP3L mRNA, set 1 = 0.0992; NDRG1 mRNA, set 1 = 0.0237.
For AKAP8 (GeneID 10270) [SID363996732], the values are BNIP3L mRNA, set 1 = 0.113; NDRG1 mRNA, set 1 = 0.57.
Silencing of GRIN3A (GeneID 116443) [SID364004532] resulted in: BNIP3L mRNA, set 1 = 0.127; NDRG1 mRNA, set 1 = 0.206.
With knock-down of IFT172 (GeneID 26160) [SID363999632], the record shows BNIP3L mRNA, set 1 = 0.175; NDRG1 mRNA, set 1 = 0.26.
Depletion of ZNF544 (GeneID 27300) [SID363998892] gave: BNIP3L mRNA, set 1 = 0.25; NDRG1 mRNA, set 1 = 0.207.

Sorted by “NDRG1 mRNA, set 1” (descending): some entries from above
SDHAF2 (GeneID 54949) [SID364000573] → BNIP3L mRNA, set 1: 0.0556; NDRG1 mRNA, set 1: 0.303
IFNA6 (GeneID 3443) [SID364001943] → BNIP3L mRNA, set 1: 0.116; NDRG1 mRNA, set 1: 0.254
FOLH1 (GeneID 2346) [SID363995457] → BNIP3L mRNA, set 1: 0.152; NDRG1 mRNA, set 1: 0.192
